Values quoted from earlier work in patent publication US20190062383A1 (priority 2013, published 2019).

Test system: Kv1.1, Kv1.2, Kv1.4, Kv1.5, and Kv1.6
Conditions: cited from earlier work

CC[C@H](C)[C@@H]1NC(=O)[C@@H]2CSSC[C@@H]3NC(=O)[C@H](CCCCN)NC(=O)CNC(=O)[C@H](CC(N)=O)NC(=O)[C@H](CCSC)NC(=O)[C@H](CSSC[C@H](NC(=O)[C@H](CCCCN)NC(=O)[C@@H](NC(=O)[C@H](CC(=O)O)NC(=O)[C@@H](NC(=O)[C@@H]4CCCN4C(=O)[C@@H](NC(=O)CN)C(C)C)[C@@H](C)O)C(C)C)C(=O)N[C@@H](CCCNC(=N)N)C(=O)NCC(=O)N[C@@H](CO)C(=O)N4CCC[C@H]4C(=O)N[C@@H](CCC(N)=O)C(=O)N2)NC(=O)[C@H](CCCCN)NC(=O)CNC(=O)[C@H](Cc2ccccc2)NC(=O)[C@H](CCCNC(=N)N)NC(=O)[C@H](CCSC)NC(=O)CNC(=O)[C@H](C)NC(=O)[C@H](CC(=O)O)NC(=O)[C@H](CCCCN)NC(=O)[C@H](CSSC[C@@H](C(=O)N[C@H](C(=O)N2CCC[C@H]2C(=O)N[C@@H](CCCCN)C(=O)O)[C@@H](C)O)NC(=O)[C@H](Cc2c[nH]cn2)NC3=O)NC(=O)[C@@H]2CCCN2C(=O)[C@H](CCC(N)=O)NC1=O [OdK2]
activity on other Kv1.x subtypes tested: no activity
